In US20230211020A1, “TREATMENT OF INFECTIONS” (ACT Therapeutics Ltd, priority 2020, published 2023):
At least one structure is not confirmed: it was looked up by name or label, or the drawing left a doubt.

Tested on: Staphylococcus aureus Xen29
Assay: Staphylococcal human foreign body infection model in mice, Rifampicin with or without ACT (Example 5, prospective)
Assay type: in vivo

SMILES: CO[C@H]1/C=C/O[C@@]2(C)Oc3c(C)c(O)c4c(O)c(c(/C=N/N5CCN(C)CC5)c(O)c4c3C2=O)NC(=O)/C(C)=C\C=C\[C@H](C)[C@H](O)[C@@H](C)[C@@H](O)[C@@H](C)[C@H](OC(C)=O)[C@@H]1C [RIF, Rifampicin]
- reduction in CFU vs. RIF alone (RIF + ACT): > 10 fold
- therapeutic effect vs. vehicle control (CFU) (RIF alone, first not effective dose, subcutaneous, daily for 4 days): no significant therapeutic effect
